# Reference: PubChem BioAssay AID1347131 (National Center for Advancing Translational Sciences (NCATS), 2019)
# Hit rate of the full screen: of about 410,000 compounds, about 2,000 (0.49%) were called active. The shares of active, inactive and inconclusive entries below differ from those in the screen. Calls follow the shape of the full dose curve; tested in HEK293 reporter line. A potency beside an inconclusive call is a rough fit, not a confirmed value.
# Assay: qHTS Assay for Foot and Mouth Disease Virus Antivirals: Primary Screen against the MLPCN compound library; also: nearly all actives have a fitted effect of over 55% in size
# Conditions: FMDV antiviral cell-based qHTS; series mostly up to 57.9 µM
# Potency is read from the fitted curve at half-maximal effect.
row,SMILES,Potency
1,CNC(=O)COC(=O)c1ccc(-c2nc3ccccc3s2)s1,"inconclusive: 15.8 µM [inhibitor, single point]"
2,CCOC(=O)C1CCN(C(c2cccnc2)c2c(NC(=O)c3ccco3)sc(C)c2C)CC1 (centres undefined),"inconclusive: 25.1 µM [inhibitor, partial curve, poor fit]"
3,COc1ccc(OCC(=O)N2CCN(c3nnc(-c4ccc(C)cc4)c4ccccc34)CC2)cc1,"inconclusive: 28.2 µM [inhibitor, partial curve, poor fit]"
4,Cc1ccc(CN(Cc2cccnc2)C(=O)CN2C(=O)COc3ccccc32)o1,"inconclusive: 15.8 µM [inhibitor, partial curve]"
5,N/C(=N\OC(=O)Cc1ccc(-c2ccccc2)cc1)c1cccnc1,"inconclusive: 20 µM [inhibitor, single point]"
6,O=C(/C=C\Nc1ccccc1Br)c1ccc2c(c1)OCO2,"inconclusive: 10 µM [inhibitor, partial curve, poor fit]"
7,O=[N+]([O-])c1cnc(Sc2ccncn2)s1,"inconclusive: 39.8 µM [inhibitor, partial curve, poor fit]"
8,CC(=O)c1c(C)[nH]c(C(=O)NNC(=O)COc2ccc(Cl)cc2C)c1C,"inconclusive: 22.4 µM [inhibitor, partial curve, poor fit]"
9,COc1ccc(-c2ccc3c(c2)S(=O)(=O)c2cccc(C(=O)NCc4cc(C)oc4C(F)(F)F)c2C3=O)cc1OC,"inconclusive: 11.2 µM [inhibitor, partial curve, poor fit]"
10,CC(C)C[C@H](NC(=O)c1nc[nH]c1C(=O)N[C@@H](CC(C)C)C(=O)OC(C)(C)C)C(=O)OC(C)(C)C,"inconclusive: 39.8 µM [inhibitor, partial curve, poor fit]"
11,O=C(COn1nnc2ccc(C(F)(F)F)cc21)Nc1c(Cl)cccc1Cl,"inconclusive: 28.2 µM [inhibitor, partial curve, poor fit]"
12,O=C1NC(=O)N(Cc2ccccc2)C(=O)/C1=C\N1CCCc2ccccc21,inactive
13,O=C(/C=C/c1ccccc1)Nc1nc(-c2ccncc2)cs1,"inconclusive: 12.6 µM [inhibitor, partial curve, poor fit]"
14,Cc1ccc(C(=O)O/N=C(\N)Cc2ccc([N+](=O)[O-])cc2)c(Cl)c1,inactive
15,COc1cccc(NC(=O)CSc2ccc(-c3sc(C)nc3C)nn2)c1,"inconclusive: 31.6 µM [inhibitor, partial curve, poor fit]"
16,O=C1CC(c2cccc(F)c2)SC(N(c2ccccc2)c2ccccc2)=N1 (centres undefined),"inconclusive: 22.4 µM [inhibitor, partial curve, poor fit]"
17,Cc1cc(Nc2cccc(C(F)(F)F)c2)nc2ccc(NC(=O)c3cncc(Br)c3)cc12,"inconclusive: 31.6 µM [inhibitor, partial curve, poor fit]"
18,O=C(Nc1ccc(Cl)c(C(F)(F)F)c1)c1cc2nc(-c3ccc4c(c3)OCO4)cc(C(F)(F)F)n2n1,inactive
19,CCOC(=O)C1=C(C)N=C2SC(C(=O)OC)=CC(=O)N2C1c1ccc(OC)cc1 (centres undefined),"inconclusive: 14.1 µM [inhibitor, partial curve, poor fit]"
20,Cc1ccnc(NC(=O)c2cc3ccccc3o2)c1,"inconclusive: 28.2 µM [inhibitor, partial curve, poor fit]"

# Quoted from the listing:
# `CC(C)C[C@H](NC(=O)c1nc[nH]c1C(=O)N[C@@H](CC(C)C)C(=O)OC(C)(C)C)C(=O)OC(C)(C)C` – Potency: inconclusive: 39.8 µM [inhibitor, partial curve, poor fit]
# `COc1ccc(-c2ccc3c(c2)S(=O)(=O)c2cccc(C(=O)NCc4cc(C)oc4C(F)(F)F)c2C3=O)cc1OC` – Potency: inconclusive: 11.2 µM [inhibitor, partial curve, poor fit]

# The list goes on:

row,SMILES,Potency
1,CN(c1ccccc1)S(=O)(=O)c1cc(C(=O)N2CCN(c3ccccn3)CC2)ccc1Cl,"inconclusive: 12.6 µM [inhibitor, partial curve, poor fit]"
2,CCC(=O)[C@@H](C)[C@@H](O)[C@H](C)C[C@@H](C)C1OC(=O)C[C@@]2(O)CC=C(C)C(O2)C(C)=CCCC[C@H](O[C@H]2C[C@@H](OC(N)=O)[C@H](O)[C@@H](C)O2)C=C[C@H](C)C[C@H]1C (some centres undefined),"inconclusive: 17.8 µM [inhibitor, partial curve, poor fit]"
3,Cc1ccc(/C=C/C(=O)NC2=NCCS2)cc1,"inconclusive: 8.91 µM [inhibitor, partial curve, poor fit]"
4,Cc1cc(C)nc(N(C#N)CN2C(=O)c3ccccc3S2(=O)=O)n1,"inconclusive: 39.8 µM [inhibitor, partial curve, poor fit]"
5,CC(=O)c1nn(-c2ccc(OC(F)(F)F)cc2)nc1Nc1ccccc1,"inconclusive: 10 µM [inhibitor, partial curve]"
6,CCN1/C(=C/c2sc(-c3ccccc3C)c[n+]2C)Sc2ccccc21,"inconclusive: 11.2 µM [inhibitor, partial curve, poor fit]"
7,COc1cc(OC)cc(C(=O)NC2CC3CCC(C2)N3C)c1 (centres undefined),"inconclusive: 3.98 µM [inhibitor, partial curve]"
8,CCC(=O)n1nc(NCc2ccc(OC)c(OC)c2)nc1NCc1ccc(OC)c(OC)c1,"inconclusive: 17.8 µM [inhibitor, partial curve, poor fit]"
9,CC1(C)N=C(SCC(=O)Nc2ccc(Cl)cc2)C(c2ccc(Cl)cc2)=N1,"inconclusive: 22.4 µM [inhibitor, partial curve, poor fit]"
10,COc1cc(NC(=O)CCNC(=O)N2CC(=O)Nc3ccccc32)cc(OC)c1OC,"inconclusive: 1.26 µM [inhibitor, full curve]"
11,Cc1cc(-c2nc3ccccc3s2)ccc1N,active: 7.94 µM
12,O=C(NCC1CCN(c2ccc(S(=O)(=O)N3CCOCC3)cc2)CC1)c1ccc(Cl)cc1,"inconclusive: 39.8 µM [inhibitor, partial curve, poor fit]"
13,Cc1ccc2nc(-c3ccccn3)[nH]c2c1,"inconclusive: 35.5 µM [inhibitor, single point]"
14,N#CC1=C(N)N2C(=C(C#N)C1c1cccc(Br)c1)Nc1ccccc12 (centres undefined),"inconclusive: 7.94 µM [inhibitor, full curve, poor fit]"
15,O=C(Nc1nnc(CSCc2ccc(F)cc2)s1)c1cccc([N+](=O)[O-])c1,"inconclusive: 39.8 µM [inhibitor, partial curve, poor fit]"
16,O=C(Nc1cccc(NC(=O)c2cccc([N+](=O)[O-])c2)n1)c1cccc([N+](=O)[O-])c1,"inconclusive: 8.91 µM [inhibitor, partial curve, poor fit]"
17,N#Cc1c(NC(=O)Cn2c(=O)oc3ccccc32)oc(-c2ccccc2)c1-c1ccccc1,"inconclusive: 28.2 µM [inhibitor, partial curve, poor fit]"
18,COc1ccc(-c2c(C#N)c(N)nc3c2CCc2ccccc2-3)cc1OC,"inconclusive: 15.8 µM [inhibitor, partial curve, poor fit]"
19,CCN(CC)c1ccc2cc(-c3nc(-c4ccc(Cl)cc4Cl)cs3)c(=O)oc2c1,"inconclusive: 15.8 µM [inhibitor, partial curve]"
20,Cc1c(-c2ccccn2)c(=O)[nH]n1-c1ccc(F)cc1,"inconclusive: 17.8 µM [inhibitor, single point]"

row,SMILES,Potency
1,CSc1ccc(NC(=O)N2CC=C(n3c(=O)[nH]c4ccccc43)CC2)cc1,inactive
2,COCCN1C(=O)CSCC1(C)C(=O)NCc1ccccc1 (centres undefined),"inconclusive: 2.24 µM [inhibitor, full curve]"
3,CC(Sc1nnc(C(C)Oc2ccc(F)cc2)o1)C(=O)NCc1ccc2c(c1)OCO2 (centres undefined),"inconclusive: 1 µM [inhibitor, full curve]"
4,Cn1ncc(S(=O)(=O)Cc2ccccc2)c(Cl)c1=O,active: 20 µM
5,O=C(COC(=O)/C=C/c1cccs1)Nc1ccc(Cl)cc1F,inactive
6,O=C(Nc1ccccc1)N1CCCN(c2ccc(C(F)(F)F)cn2)CC1,inactive
7,Oc1ccccc1N=Nc1nc(-c2ccccc2)c(-c2ccccc2)[nH]1,"inconclusive: 28.2 µM [inhibitor, partial curve, poor fit]"
8,CCOc1ccc2nc(NC(=O)c3ccc(S(=O)(=O)N4CCOCC4)cc3)sc2c1,"inconclusive: 28.2 µM [inhibitor, partial curve, poor fit]"
9,ClCc1nnc(-c2cc3c(s2)CCCC3)o1,"inconclusive: 20 µM [inhibitor, single point]"
10,CC1=NNC(=O)/C1=C\c1cn(-c2ccccc2)nc1-c1ccc(Cl)cc1,"inconclusive: 10 µM [inhibitor, partial curve, poor fit]"
11,COc1ccc(Oc2ncc3nc(-c4ccccc4)c(=O)n(CCC#N)c3n2)cc1,inactive
12,Cc1ccccc1CS(=O)(=O)c1ccc(C(=O)N2CCOCC2)cc1[N+](=O)[O-],inactive
13,COc1ccc(-c2nc3ccccc3c(=O)n2-c2ccc(OC)cc2)cc1,"inconclusive: 10 µM [inhibitor, partial curve, poor fit]"
14,Cn1c(CN2CCOCC2)c(C#N)c2ccccc21,"inconclusive: 2.24 µM [inhibitor, partial curve, poor fit]"
15,CCN(CC)c1ccc(/C=C(\C#N)c2ccccn2)cc1,"inconclusive: 3.98 µM [inhibitor, full curve, poor fit]"
16,COc1ccc(/C=N/Nc2ccc(C(=O)O)cc2)cc1Br,inactive
17,N#Cc1c(/N=C/c2ccc(O)cc2O)sc2c1C1CCN2CC1,"inconclusive: 39.8 µM [inhibitor, single point]"
18,S=C(NCCCN1CCOCC1)N1CCN(c2nc(-c3ccc(Cl)cc3)cs2)CC1,"inconclusive: 12.6 µM [inhibitor, partial curve, poor fit]"
19,Cc1ccc(NC(=O)N2CCc3ccccc32)cc1,"inconclusive: 15.8 µM [inhibitor, single point]"
